According to PubChem BioAssay AID248 (DTP/NCI, 2004):
The list does not hold the whole screen: it gathers tests that were run many times, whatever their T/C, doses with no T/C, and many T/C values between a quarter and a half above the control. Other doses and runs of a compound stand elsewhere. T/C is the treated group as % of the vehicle group. Some doses have a count of surviving animals in place of a T/C: the source holds a T/C of zero for them, seemingly a mark for toxic or unscored doses. Some survivor counts are full or nearly so, which does not show that the dose was tolerated: survival well below the control is almost never listed, so the zero probably covers shortened survival too. Counts of survivors are from the toxicity check (mostly the fifth day) where no day follows; animals may have died later. Schedules are NCI's codes, taken here to give the interval after Q, in days (D) or hours (H), and the number of doses after X. Where survival is the endpoint, this PubChem deposit counts one and a half times the control or more as active, and values a quarter to a half above the control carry no call in these data; other NCI protocols may use other cut-offs. Additions like (4×) give the number of equal values in this list. Some T/C values are followed by the survivors on the day toxicity was checked, most often the fifth; where none is given, no animal had died by that day. Some entries hold several experiments; the values are given in rising order. Some schedules carry Z or #; the key to these is not given.

System: L1210 leukemia ip in BDF1 mice, survival T/C
Assay: NCI In Vivo Anticancer Drug Screen. Data for tumor model L1210 Leukemia (intraperitoneal) in B6D2F1 (BDF1) mice
Conditions: T/C endpoint: median survival time, higher T/C = longer survival

## COc1cccc2c1C(=O)c1c(O)c3c(c(O)c1C2=O)C[C@@](O)(C(=O)CO)C[C@@H]3OC1CC(N)C(O)C(C)O1 (stereo not given in full)
dose: 0.65 mg/kg/injection, schedule: Q03HX008 (ip), vehicle: water, evaluated on day 30
  T/C: 120 % of control
dose: 0.65 mg/kg/injection, schedule: Q03HX008 (ip), vehicle: water, evaluated on day 32
  T/C: 114 % of control
dose: 0.65 mg/kg/injection, schedule: Q03HX008 (ip), vehicle: water, evaluated on day 33
  T/C: 120 % of control
dose: 0.65 mg/kg/injection, schedule: Q03HX008 (ip), vehicle: water, evaluated on day 35
  T/C: 140 % of control
dose: 0.65 mg/kg/injection, schedule: Q03HX008 (ip), vehicle: water, evaluated on day 38
  T/C: 133 % of control
dose: 0.65 mg/kg/injection, schedule: Q03HX008 (ip), vehicle: water, evaluated on day 46
  T/C: 133 % of control
dose: 0.65 mg/kg/injection, schedule: Q03HX008 (ip), vehicle: water, evaluated on day 60
  T/C: 95, 105, 131, 159 % of control
dose: 0.65 mg/kg/injection, schedule: Q03HX008 (ip), vehicle: water, evaluated on day 63
  T/C: 117 % of control
dose: 0.65 mg/kg/injection, schedule: Q03HX016 (ip), vehicle: water, evaluated on day 5
  T/C: 161 % of control
dose: 0.65 mg/kg/injection, schedule: Q03HX016 (ip), vehicle: water, evaluated on day 46
  T/C: 161 % of control
dose: 0.65 mg/kg/injection, schedule: Q03HX016 (ip), vehicle: water, evaluated on day 60
  T/C: 100 and 113 % of control
dose: 0.65 mg/kg/injection, schedule: Q03HX024 (ip), vehicle: water, evaluated on day 7
  T/C: 107 and 160 % of control
dose: 0.65 mg/kg/injection, schedule: Q03HX024 (ip), vehicle: water, evaluated on day 32
  T/C: 107 % of control
dose: 0.65 mg/kg/injection, schedule: Q03HX024 (ip), vehicle: water, evaluated on day 60
  T/C: 95 and 113 % of control
dose: 0.65 mg/kg/injection, schedule: Q03HX024 (ip), vehicle: water, evaluated on day 63
  T/C: 158 % of control
dose: 0.65 mg/kg/injection, schedule: Q04DX003 (ip), vehicle: water, evaluated on day 5
  T/C: 86 and 137 % of control
dose: 0.65 mg/kg/injection, schedule: Q04DX003 (ip), vehicle: water, evaluated on day 60
  T/C: 86 and 140 % of control
dose: 0.75 mg/kg/injection, schedule: Q03HX008 (ip), vehicle: water, evaluated on day 5
  T/C: 107, 131, 133, 137, 138 % of control
dose: 0.75 mg/kg/injection, schedule: Q03HX008 (ip), vehicle: water, evaluated on day 7
  T/C: 109 % of control
dose: 0.75 mg/kg/injection, schedule: Q03HX008 (ip), vehicle: water, evaluated on day 20
  T/C: 131 % of control
dose: 0.75 mg/kg/injection, schedule: Q03HX008 (ip), vehicle: water, evaluated on day 29
  T/C: 137 % of control
dose: 0.75 mg/kg/injection, schedule: Q03HX008 (ip), vehicle: water, evaluated on day 30
  T/C: 107, 109, 138 % of control [6 of 8 alive]
dose: 0.75 mg/kg/injection, schedule: Q03HX008 (ip), vehicle: water, evaluated on day 60
  T/C: 133 % of control
dose: 1.0 mg/kg/injection, schedule: Q01DX001 (ip), vehicle: saline, evaluated on day 5
  T/C: 113, 116, 123, 130, 135, 138 % of control
dose: 1.0 mg/kg/injection, schedule: Q01DX001 (ip), vehicle: saline, evaluated on day 30
  T/C: 123 % of control
dose: 1.0 mg/kg/injection, schedule: Q01DX001 (ip), vehicle: saline, evaluated on day 60
  T/C: 116, 130, 134, 135 % of control
dose: 1.0 mg/kg/injection, schedule: Q01DX001 (ip), vehicle: water, evaluated on day 5
  T/C: 114 % of control (2×)
dose: 1.0 mg/kg/injection, schedule: Q01DX001 (ip), vehicle: water, evaluated on day 21
  T/C: 114 % of control
dose: 1.0 mg/kg/injection, schedule: Q01DX001 (ip), vehicle: water, evaluated on day 30
  T/C: 116 % of control
dose: 1.0 mg/kg/injection, schedule: Q01DX009 (ip), vehicle: water
  T/C: 131 % of control
dose: 1.0 mg/kg/injection, schedule: Q03HX008 (ip), vehicle: water, evaluated on day 5
  T/C: 153 % of control
dose: 1.0 mg/kg/injection, schedule: Q03HX008 (ip), vehicle: water, evaluated on day 30
  T/C: 141 % of control
dose: 1.0 mg/kg/injection, schedule: Q03HX008 (ip), vehicle: water, evaluated on day 46
  T/C: 155 % of control
dose: 1.0 mg/kg/injection, schedule: Q03HX008 (ip), vehicle: water, evaluated on day 61
  T/C: 136 % of control
dose: 1.0 mg/kg/injection, schedule: Q04DX003 (ip), vehicle: water, evaluated on day 5
  T/C: 137 % of control
dose: 1.0 mg/kg/injection, schedule: Q04DX003 (ip), vehicle: water, evaluated on day 30
  T/C: 137 % of control
dose: 1.0 mg/kg/injection, schedule: Q## X001 (ip), vehicle: saline
  T/C: 138 % of control
dose: 1.0 mg/kg/injection, schedule: Q##DX001 (ip), vehicle: saline
  T/C: 134 % of control
dose: 1.08 mg/kg/injection, schedule: Q01DX005 (ip), vehicle: water, evaluated on day 5
  T/C: 120 % of control
dose: 1.08 mg/kg/injection, schedule: Q01DX005 (ip), vehicle: water, evaluated on day 35
  T/C: 120 % of control
dose: 1.08 mg/kg/injection, schedule: Q01DX005 (ip), vehicle: water, evaluated on day 60
  T/C: 120 and 121 % of control
dose: 1.08 mg/kg/injection, schedule: Q01DX005 (ip), vehicle: water, evaluated on day 90
  T/C: 144 % of control
dose: 1.08 mg/kg/injection, schedule: Q03HX008 (ip), vehicle: none
  T/C: 146 % of control
dose: 1.08 mg/kg/injection, schedule: Q03HX008 (ip), vehicle: water, evaluated on day 5
  T/C: 61, 135, 141, 159 % of control
dose: 1.08 mg/kg/injection, schedule: Q03HX008 (ip), vehicle: water, evaluated on day 7
  T/C: 107, 109, 114, 118 % of control
dose: 1.08 mg/kg/injection, schedule: Q03HX008 (ip), vehicle: water, evaluated on day 20
  T/C: 114 % of control
dose: 1.08 mg/kg/injection, schedule: Q03HX008 (ip), vehicle: water, evaluated on day 30
  T/C: 145 % of control
dose: 1.08 mg/kg/injection, schedule: Q03HX008 (ip), vehicle: water, evaluated on day 32
  T/C: 107 % of control
dose: 1.08 mg/kg/injection, schedule: Q03HX008 (ip), vehicle: water, evaluated on day 33
  T/C: 140 % of control
dose: 1.08 mg/kg/injection, schedule: Q03HX008 (ip), vehicle: water, evaluated on day 35
  T/C: 160 % of control
dose: 1.08 mg/kg/injection, schedule: Q03HX008 (ip), vehicle: water, evaluated on day 38
  T/C: 161 % of control
dose: 1.08 mg/kg/injection, schedule: Q03HX008 (ip), vehicle: water, evaluated on day 46
  T/C: 133 % of control
dose: 1.08 mg/kg/injection, schedule: Q03HX008 (ip), vehicle: water, evaluated on day 60
  T/C: 100, 118, 131 % of control
dose: 1.08 mg/kg/injection, schedule: Q03HX008 (ip), vehicle: water, evaluated on day 63
  T/C: 105 % of control
dose: 1.08 mg/kg/injection, schedule: Q03HX008 (ip), vehicle: water
  survivor count: 8 of 8
